Reference: PubChem BioAssay AID1259405 (NCATS, 2018)

Aim: 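Mouse-designed siRNAs used to find CHO productivity engineering targets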 (primary screen)
System: Chinese hamster CHO-K1 ovary cells with stable secreted eGFP expression
Reagent: single siRNA against mouse genes, 0.8 pmol siRNA per well (2 µl of 400 nM stock)
Time to read-out: 3 days
Detection: 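Percent of the per-plate non-targeting control median for intracellular GFP per well by laser scanning cytometry and for cell viability by ATP luminescence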
Direction: GFP, % of control: higher = more GFP per well, higher productivity; viability (ATP), % of control: higher = more viable cells (more ATP)
Active means: 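a knock-down is called active if GFP reaches 120% or more of non-targeting control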
This is a random part of about 50,000 reagents. In the full data, about 4,000 (8%) were called active. 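Mouse siRNA library applied to hamster cells; one well for each siRNA.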 Unmarked entries are inactive. The numbers tell different reagents against one gene apart.

What did the screen give for 4930447C04Rik (GeneID 75801) #1?
GFP, % of control: 99.4; viability (ATP), % of control: 109

With 4930447C04Rik (GeneID 75801) #2, how do the results read?
GFP, % of control: 80.9; viability (ATP), % of control: 88.1

With 4930447C04Rik (GeneID 75801) #3, what does the deposit list?
GFP, % of control: 90.4; viability (ATP), % of control: 139

What is on record for Pmp22 (GeneID 18858) #1?
GFP, % of control: 96.8; viability (ATP), % of control: 63.6

With Pmp22 (GeneID 18858) #2, what was measured?
GFP, % of control: 41.8; viability (ATP), % of control: 65.4

What did the screen give for Pmp22 (GeneID 18858) #3?
GFP, % of control: 54.4; viability (ATP), % of control: 80.4

With Cby1 (GeneID 73739) #1, what does the deposit list?
GFP, % of control: 74.9; viability (ATP), % of control: 62.6

How did the screen score Cby1 (GeneID 73739) #2?
GFP, % of control: 69.4; viability (ATP), % of control: 75.4

For Cby1 (GeneID 73739) #3, how do the results read?
GFP, % of control: 79; viability (ATP), % of control: 59.5

How did the screen score Araf (GeneID 11836)?
GFP, % of control: 137 (active); viability (ATP), % of control: 81.3

How did the screen score Cd2bp2 (GeneID 70233) #1?
GFP, % of control: 94.6; viability (ATP), % of control: 108

With Cd2bp2 (GeneID 70233) #2, what was measured?
GFP, % of control: 71.6; viability (ATP), % of control: 97.2

What is on record for Cd2bp2 (GeneID 70233) #3?
GFP, % of control: 83; viability (ATP), % of control: 91.2

What is on record for Or14j5 (GeneID 258892) #1?
GFP, % of control: 77.6; viability (ATP), % of control: 53.3

For Or14j5 (GeneID 258892) #2, how do the results read?
GFP, % of control: 48.5; viability (ATP), % of control: 82.9

For Or14j5 (GeneID 258892) #3, how do the results read?
GFP, % of control: 77.5; viability (ATP), % of control: 80.7

Reagents listed above called active, once more:
Araf (GeneID 11836) | GFP, % of control: 137 (active); viability (ATP), % of control: 81.3
